# Assay results reported in PubChem BioAssay AID2685 (National Center for Advancing Translational Sciences (NCATS), 2010).
# This is one part of the list. The main result of the screen is listed elsewhere. These columns were measured beside it and carry no call. Compounds called inactive in the main read-out are mostly missing here. The note in brackets gives the kind of curve behind each potency; many fits are weak.
# Experiment: qHTS Assay for Lipid Storage Modulators in Drosophila S3 Cells;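 as to cell number change: cells counted by Cell Tracker Red CMTPX staining in the red channel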
# Conditions: BODIPY lipid droplet fluorescence, 18-24 h; for cell number change: measured here: cell count max response, cells fed with added oleic acid
# Procedure, shortened: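 Drosophila S3 cells loaded with oleic acid (400 uM, as added) and compounds at several concentrations; lipid droplets imaged by 488-nm laser-scanning cytometry, 500–530 nm intensity and object ratio to cell channel. Percent activity normalized to 20 uM Triacsin C.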
# [1] = measured here: lipid fluorescence (Fed channel) AC50, cells fed with added oleic acid
# [2] = measured here: cell number channel AC50, cells fed with added oleic acid
SMILES,cell number change,AC50 [1],AC50 [2]
N#Cc1ccccc1OCC(=O)OCC(=O)c1c[nH]c2ccccc12,-8.12%,"1.84 µM [falling, single point]",
Cc1ccc(S(=O)(=O)N2CCN(C3CC(=O)N(CCc4ccccc4)C3=O)CC2)cc1C (stereo not given),2.07%,"0.651 µM [falling, single point]",
Cc1ccc(C(=O)CCC(=O)OCC(=O)NNC(=O)c2ccc([N+](=O)[O-])cc2)cc1,-24.9%,,
O=C(c1cc(C2CC2)nn1-c1ccccc1)N1CCN(c2ncc(C(F)(F)F)cc2Cl)CC1,25.5%,"29.1 µM [rising, single point]",
CC1CCN(C(=O)CSc2nc3ccccc3[nH]2)CC1,,"6.51 µM [falling, partial curve]","7.31 µM [falling, single point]"
COc1ccc(NC(=O)CSCC(=O)N2c3ccccc3CCc3ccccc32)cc1,-30.2%,"10.3 µM [rising, partial curve]","2.31 µM [falling, partial curve, poor fit]"
O=C(Nc1ccc(N2CCCCC2)cc1)c1ccccn1,58.8%,"4.11 µM [rising, full curve]","2.91 µM [rising, full curve]"
COc1ccc(NS(=O)(=O)c2ccc(-c3coc(C)n3)cc2)cc1,-13%,"0.58 µM [rising, single point]",
CCOC(=O)C1CCN(C(=O)COC(=O)c2ccc([N+](=O)[O-])o2)CC1,-37.6%,,"25.9 µM [falling, partial curve, poor fit]"
Cc1cc(C)nc(/N=C2\NC(=O)CC(C(=O)O)N2c2ccc(F)c(Cl)c2)n1 (stereo not given),1.94%,,
COc1ccc(-c2cc(C(=O)NCc3cn(C)nc3C)c3ccccc3n2)cc1OC,21.5%,"2.59 µM [rising, single point]",
Cc1nc(N2CCC(C(N)=O)CC2)c2nnn(Cc3ccccc3)c2n1,24.2%,"1.64 µM [rising, partial curve]",
Nc1ccc2c(c1)Oc1ccccc1C=C2,20.3%,"29.1 µM [rising, single point]",
CCOC(=O)C1=C(C(F)(F)F)Nc2ncnn2C1c1ccc(OC)c(OC)c1OC (stereo not given),0.157%,"0.00461 µM [falling, full curve, poor fit]",
Cc1ccc(-c2nnc(CCC(=O)NCC3C4CC5CC(C4)CC3C5)o2)s1 (stereo not given),-43.6%,"14.6 µM [falling, partial curve]","16.4 µM [falling, partial curve]"
Cc1ccc(C(=O)N/C(=C\c2cccc([N+](=O)[O-])c2)C(=O)OCN2C(=O)c3ccccc3C2=O)cc1,57.5%,"29.1 µM [rising, partial curve]","29.1 µM [rising, single point]"
CCOC(=O)C1=C(C)NC(SCC(N)=O)=C(C#N)C1c1ccncc1 (stereo not given),-29.6%,,
O=C(COC(=O)CCc1ccccc1)Nc1cc([N+](=O)[O-])ccc1F,-5.41%,"29.1 µM [rising, single point]",
Cn1nc([N+](=O)[O-])nc1Sc1nnnn1-c1cccc(C(=O)O)c1,14.9%,"0.731 µM [falling, partial curve, poor fit]","0.82 µM [falling, single point]"

# In another format: entries from further up.
SMILES	cell number change	AC50 [1]	AC50 [2]
O=C(c1cc(C2CC2)nn1-c1ccccc1)N1CCN(c2ncc(C(F)(F)F)cc2Cl)CC1	25.5%	29.1 µM [rising, single point]	
CC1CCN(C(=O)CSc2nc3ccccc3[nH]2)CC1		6.51 µM [falling, partial curve]	7.31 µM [falling, single point]
COc1ccc(NC(=O)CSCC(=O)N2c3ccccc3CCc3ccccc32)cc1	-30.2%	10.3 µM [rising, partial curve]	2.31 µM [falling, partial curve, poor fit]
O=C(Nc1ccc(N2CCCCC2)cc1)c1ccccn1	58.8%	4.11 µM [rising, full curve]	2.91 µM [rising, full curve]
COc1ccc(NS(=O)(=O)c2ccc(-c3coc(C)n3)cc2)cc1	-13%	0.58 µM [rising, single point]	
CCOC(=O)C1CCN(C(=O)COC(=O)c2ccc([N+](=O)[O-])o2)CC1	-37.6%		25.9 µM [falling, partial curve, poor fit]
Cc1cc(C)nc(/N=C2\NC(=O)CC(C(=O)O)N2c2ccc(F)c(Cl)c2)n1 (stereo not given)	1.94%		
COc1ccc(-c2cc(C(=O)NCc3cn(C)nc3C)c3ccccc3n2)cc1OC	21.5%	2.59 µM [rising, single point]	
Cc1nc(N2CCC(C(N)=O)CC2)c2nnn(Cc3ccccc3)c2n1	24.2%	1.64 µM [rising, partial curve]	
Nc1ccc2c(c1)Oc1ccccc1C=C2	20.3%	29.1 µM [rising, single point]	

# Later entries:

SMILES,cell number change,AC50 [1],AC50 [2]
CCCCOP(=O)(c1ccc(N(C)C)cc1)C(O)c1cc(OC)c(OC)c(OC)c1 (stereo not given),-11.1%,"2.31 µM [falling, single point]",
O=C(NC(=S)Nc1cccc(Cl)c1Cl)C1CC1,-27.8%,,
CCOC(=O)c1c(NC(=O)C2=C(C)NC(=S)NC2c2ccc(C)cc2)sc(C)c1C (stereo not given),-9.5%,"29.1 µM [falling, single point]",
C(=N\NC1=Nc2cccc3cccc1c23)/c1ccccn1,-37.6%,,"4.61 µM [falling, partial curve]"
CCOC(=O)c1c(-c2ccccc2)csc1NC(=O)CSc1nncs1,0.666%,"0.0651 µM [rising, full curve, poor fit]",
CCCCNC(=S)NNC(=O)c1c(C)nc2ccccn12,87.3%,"5.17 µM [rising, full curve]","6.51 µM [rising, full curve]"
C[C@H](NC(=O)c1ccccc1)C(=O)N1CCN(c2ccccc2)CC1,,,"6.51 µM [rising, single point]"
COc1ccc(OCC(=O)NC(=S)NNC(=O)COc2ccc(Br)cc2Cl)cc1,-49.6%,"0.92 µM [falling, full curve]","0.82 µM [falling, full curve]"
O=C(CC1C(=O)OCN1C(=O)OCc1ccccc1)OCC(=O)c1ccccc1 (stereo not given),0.337%,,
CCOC(=O)C1CCN(C(=O)Cc2cccs2)CC1,4.18%,,
CCOc1ccc(NC(=O)Nc2cc(C)ccc2OC)cc1,-28.7%,"18.4 µM [falling, single point]",
Cc1nc(-c2cccc(S(=O)(=O)N3CC(C)CC(C)C3)c2)cs1 (stereo not given),-18.3%,"0.184 µM [rising, partial curve, poor fit]",
Cc1nc(N2CCN(c3ccccc3)CC2)nc2c1C(=O)CC(c1ccccc1)C2 (stereo not given),4.14%,"5.17 µM [rising, single point]",
Cc1cccc(C)c1NC(=O)CN1C(=O)COc2ccccc21,-1.47%,,
CCCCC(=O)NC1(C(F)(F)F)C(=O)N(CC(C)C)C2=C1C(=O)CC(C)(C)C2 (stereo not given),22.3%,"20.6 µM [rising, single point]",
O=C(NCC(c1ccco1)N1CCOCC1)c1ccc(F)cc1 (stereo not given),-20.4%,"4.61 µM [falling, partial curve]",
Cc1cccc(C)c1OCCOC(=O)c1n[nH]c2ccccc12,-50.1%,"1.3 µM [falling, partial curve]","5.8 µM [falling, partial curve]"
O=c1[nH]c(N2CCCCC2)nc2c1CCCC2,-3.95%,"6.51 µM [falling, single point]","0.731 µM [falling, partial curve]"
